Measured values: patent publication US20170233637A1, “METHODS FOR INHIBITING METAL CORROSION” (OHIO UNIVERSITY, priority 2014, published 2017)

How the values were obtained:
[1] = VCI screening in bulk solution (BLC rate by linear polarization resistance, OCP, solution pH); conditions: for Measured pH of solution: 1 wt % NaCl, 400 ppmV VCI candidate, 3.91 without VCI
Method: Other measurements of the effectiveness of the VCI composition to inhibit corrosion may be derived from Open Circuit Potential (OCP) and Linear Polarization Resistance (Rp) experiments. In the volatile thiol screening test, a potentiostat was used to measure the Rp and the OCP of the ferrous metal sample. Corrosion rate in the water phase (BLC rate) is proportional to the corrosion current density (icorr), which was then calculated by using a B constant value of 0.026 V/decade (icorr=B/Rp/S in which S is surface area of the sample).
A three electrode system was used in which an X65 rotating cylinder electrode (1000 RPM) was the working electrode 12, a Pt wire was used as counter electrode 14, and Ag/AgCl as the reference electrode 16. A pH probe 18 was used to measure the pH of the solution before and after adding the VCI candidates. The experiments were performed at 25° C. and 1 bar total pressure (pCO2=0.96 bar).
In the VCI screening test, a potentiostat was used to measure the polarization resistance (Rp) of the X65 sample. Corrosion rate in the water phase (BLC rate) is proportional to the corrosion current density (icorr) which was then calculated by using a B constant value of 0.026 V/decade (icorr=B/Rp/S in which S is surface area of the sample).
A baseline test was performed in the absence of the VCI candidate compound. […] Dibutyl sulfide was used to compare the sulfide functional group versus the thiol functional group.
For the VCI screening tests, a 1 wt % NaCl solution was prepared and purged with CO2 for 2 hours at 25° C. before injecting the VCI candidate. […] After that the Open Circuit Potential (OCP) and Linear Polarization Resistance (LPR) were measured every 10 minutes during an exposure time of 3-4 hours. The pH of the solution was measured before and after adding the VCI candidate. Electrolyte resistance (ER) was measured by Electrochemical Impedance Spectroscopy (EIS).

[2] = Efficacy test of VCI candidates for top of the line corrosion (weight loss, ASTM G1; surface analysis); conditions: 1 wt % NaCl
Method: The temperatures of the bottom solution and gas phases were controlled by a heater, while temperature of the specimen at the top was controlled by cooling water. Through coil 20, a condenser 22 was used to prevent water and VCI vapor loss.
In the VCI efficacy test, corrosion rate of the specimen at the top (TLC rate) was measured by weight loss following the ASTM G1 standard. Sample surface was characterized by Scanning Electron Microscopy (SEM)/Energy Dispersive X-ray Spectroscopy (EDS).
1-hexanethiol, 1-decanethiol and 1-dodecanethiol were chosen based on the results in the VCI screening test, data from which will be shown below. In addition, the effect of acetic acid and MEG on the inhibition performance of the best VCI candidate was also taken into account.
For the efficacy tests of VCI candidates for TLC, 1 wt % NaCl was also prepared and purged with CO2 for 2 hours. In order to have a gas temperature of 65° C., the bottom solution was heated to 77° C. After that the selected concentration of the VCI candidates (Table 3) was added into the bulk solution. A weight loss specimen 24, after being ground (with up to 600 grit abrasive paper), was flush-mounted at the top of the experimental setup, controlling its temperature at 32° C. using cooling water. The weight loss sample and ER probe were added 0.1 hour after addition of the VCI candidate. […]

[3] = 400 ppmv VCI added before electrode insertion, CO2 saturated 1 wt % NaCl, 25° C., baseline −0.64 V

Row | Structure (SMILES) | Measured pH of solution [1] | OCP [1, 3] | OCP ([1]; 400 ppmv injected after electrode insertion, increased from −0.63 V) [V vs. Ag/AgCl] | Measured pH of the bottom solution ([2]; 100 ppmV VCI plus 500 ppmV acetic acid) | Measured pH of the bottom solution ([2]; 100 ppmV VCI, no acetic acid, 4.17 without VCI)
1 | CCCCCCCCCCS [1-decanethiol] | 3.91 | about −0.56 V vs. Ag/AgCl | −0.56 | 3.32 | 4.19
2 | CCCCCCCCCCCCS [1-dodecanethiol] | 3.89 | – | – | – | –
3 | CCCCCCS [1-hexanethiol] | 3.90 | −0.52 V vs. Ag/AgCl | – | – | –
4 | CCCCSCCCC [Dibutyl sulfide, reference compound] | 3.93 | did not significantly change | – | – | –
